This is an account of results in PubChem BioAssay AID1347073 (National Center for Advancing Translational Sciences (NCATS), 2019).

Structures are written as SMILES. Shown are results outside the selection of hits, which stands elsewhere. Inconclusive results are not listed. Calls of active or inactive are those of the source. Calls come from the whole dose curve; as a rule, active = well fitted activation curve with a large enough effect; inconclusive = small, poorly fitted or top-dose-only effect; inactive = no such curve, though single readings can be large or run the other way.

The experiment can be described thus: qHTS of TDP-43 Inhibitors: NCGC Sytravon Library Screen. Note: 0% is about no effect; nearly all actives have a fitted effect of over 55% in size. To be noted: yeast TDP-43 toxicity rescue, BacTiter-Glo growth, 24 h; at 46.1 µM (top of the series). An excerpt: The goal of this project is to identify new chemical probes capable of reversing the toxicity associated with TDP-43 which is associated with frontotemporal lobar degeneration and amyotrophic lateral sclerosis. These compounds will provide a complementary approach to deciphering the tangled mechanisms of toxicity and protection that we have uncovered through genome-wide genetic screens and are beginning to uncover in a large-scale proteomics analysis with mass spectroscopy. To this end, a miniaturized assay was developed to be screened against the Molecular Libraries Small Molecule Repository (MLSMR) to discover TDP-43 inhibitors. Please note that in the set-up this yeast-based assay compounds that inhibit as TDP-43, have a read-out as activators. NIH Chemical Genomics Center [NCGC] NIH Molecular Libraries Probe Centers Network [MLPCN] Assay Submitter (PI): Susan Lindquist, Whitehead Institute/MIT MLPCN Grant: R21 NS060957
Dispense 2.5 microL yeast galactose medium per 1536-well plate, pin compound, dispense 2.5 microL TDP-43 expressing yeast in galactose medium at OD600=0.02 (pregrown in raffinose medium to mid-log phase) per well, incubate for 24 hr at 30 deg C, and cell growth will be measured using 5 microL of Bactiter/Glo reagent to entire plate and read using Luminescence Protocol in ViewLux.
For orientation: Quantitative high-throughput screening tests each substance at several concentrations.
For the compound `O=S(=O)(c1ccc2nc(SCc3cccc(Cl)c3)[nH]c2c1)N1CCOCC1`, the growth rescue (activation) is inactive: 12.3%.
